# Source: US5468486A, “Vaccine containing a protein alkaloid conjugate for the treatment of fescue toxicosis” (priority 1994, dated 1995)
# System: antiserum produced against the ergonovine KLH conjugate
# Experiment: Competitive ELISA
# Assay type: binding, rabbit
# Conditions: linear regression of competitive ELISA
# Experimental: Antiserum preparation: Three female New Zealand white rabbits were immunized with the HSA-ergonovine conjugate and two with the KLH-ergonovine conjugate. Initially, each rabbit was injected with 1 mg of the respective conjugate in 1 ml of phosphate buffered saline that had been emulsified with an equal amount of Freund's complete adjuvant. Booster injections of 0.2 mg of conjugate per rabbit, emulsified with Freund's incomplete adjuvant, were given at 5 and 10 weeks after the first injections. The rabbits were bled 8 and 16 days after each booster injection. Serum was collected after two cycles of low speed centrifugation. Serum from each rabbit was pooled before testing in the competitive enzyme linked immunosorbent assay (ELISA).
# Competitive ELISA: Duplicate polystyrene ELISA plates were numbered and rinsed once with distilled water. The HSA-ergonovine conjugate [[…] in carbonate coating buffer (0.5μsodium carbonate, pH 9.6)] was pipetted into each well ([…]). After 2H at 30° C. the plates were washed 4 times quickly with physiologically buffered saline (PBS) Tween (0.02M phosphate, 0.15M NaCl, 3 mM KC1+0.05% TWEEN 20, pH 7.3). All subsequent rinse steps were done with PBS-Tween. Serial dilutions were made of […] compounds used in the competitive assay. All dilutions were made in PBS-Tween. These compounds and their initial concentrations were: agroclavine 0.5 mM, ergocryptine at 100 μM, unconjugated ergonovine at 1 μM, ergotamine at 100 μM, ergovaline at 10 μM, lysergol at 10 mM, dihydroergotamine at 200 μM and IAA at 1 mM. After placing 100 μl of each dilution in duplicate wells, an additional 100 μl of antiserum, produced against the ergonovine KLH conjugate, was added to each well at a dilution of 1:1000 and mixed. The plates were incubated for 2 H at 30° C. and again rinsed 4 times quickly. Protein-A alkaline phosphatase (0.5 μg/ml in PBS-Tween) was placed in wells (200 μl/well) and incubated for 2 H at 30° C. The plates were again rinsed 4 times. Substrate, SIGMA 104® phosphatase substrate (5 mg/ml), in 10% diethanolamine, pH 9.6 was added to each well (150 μl/well). The reaction was stopped after 30 min. with 3M NaOH (75 μl/well). The plates were read on a DYNATECH MINIREADER II® reader. Mean values were calculated from duplicate wells per plate and duplicate plates were averaged. From these values a percent maximal absorbance level was calculated.
row,SMILES,Slope
1,C[C@@H](CO)NC(=O)[C@@H]1C=C2c3cccc4[nH]cc(c34)C[C@H]2N(C)C1 [ergonovine],-26.4
2,CC(C)[C@H]1C(=O)N2CCC[C@H]2[C@]2(O)O[C@@](C)(NC(=O)[C@@H]3C=C4c5cccc6[nH]cc(c56)C[C@H]4N(C)C3)C(=O)N12 [ergovaline],-15.5
3,CN1C[C@H](C(=O)N[C@]2(C)O[C@@]3(O)[C@@H]4CCCN4C(=O)[C@H](Cc4ccccc4)N3C2=O)C=C2c3cccc4[nH]cc(c34)C[C@H]21 [ergotamine],-16.1
4,CN1C[C@H](CO)C=C2c3cccc4[nH]cc(c34)C[C@H]21 [lysergol],-13.7
5,CN1C[C@H](C(=O)N[C@]2(C)O[C@@]3(O)[C@@H]4CCCN4C(=O)[C@H](Cc4ccccc4)N3C2=O)C[C@@H]2c3cccc4[nH]cc(c34)C[C@H]21 [dihydroergotamine],-22.5
6,CC1=C[C@@H]2c3cccc4[nH]cc(c34)C[C@H]2N(C)C1 [agroclavine],-19.4
7,CC(C)C[C@H]1C(=O)N2CCC[C@H]2[C@]2(O)O[C@](NC(=O)[C@@H]3C=C4c5cccc6[nH]cc(c56)C[C@H]4N(C)C3)(C(C)C)C(=O)N12 [ergocryptine],-19.7
